Data on eight molecules can be found in PubChem BioAssay AID190 (DTP/NCI, 2004).

The list is a part of this screen's results and no random one: it is rich in T/C values a quarter to a half above the control, in often repeated tests (any T/C) and in doses without a T/C. Other doses and runs of a compound stand elsewhere. T/C: endpoint of the treated group in % of that of the vehicle group. Some doses have a count of surviving animals in place of a T/C: the source files T/C as zero there, which appears to mark a toxic dose or a test without result, not a measured value. Some survivor counts are full or nearly so, which does not show that the dose was tolerated: survival well below the control is almost never listed, so the zero probably covers shortened survival too. Survivors were counted at the toxicity check, usually on the fifth day, unless a day is given; later deaths do not show. Schedule codes are those of the source, read here as Q, the interval in days (D) or hours (H), X, the number of doses. Some entries were tested several times; the results are listed from low to high. Where survival is the endpoint, the PubChem record calls one and a half times the control and up active, and a quarter to a half above the control has no call in these data; cut-offs in other NCI protocols can differ. Some T/C values carry the count of animals alive at the toxicity check (mostly the fifth day); where none is given, no animal had died by that day.

The test system of the test is AKR/Lw mice, AKR lymphoma ip, median survival T/C. In words: NCI In Vivo Anticancer Drug Screen. Data for tumor model Lymphoma AKR (Transplanted) (intraperitoneal) in AKR/Lw mice. The following applies: T/C endpoint: median survival time, higher T/C = longer survival. As to the method: The antitumor activity of compounds was measured in mice bearing transplantable tumors. Survival or tumor size were measured and the results are expressed as the measurement made in the treated group (T) divided by the measurement made in the vehicle treated control group (C). The tumor model used in this assay is Lymphoma AKR (Transplanted) (intraperitoneal) in AKR/Lw mice

[1] abbreviates: dose: 100.0 mg/kg/injection, schedule: Q04DX003 (ip), vehicle: other.
The mark [2] stands for this setting: dose: 200.0 mg/kg/injection, schedule: Q04DX003 (ip), vehicle: other.
Setting [3] is: dose: 200.0 mg/kg/injection, schedule: Q01DX001 (ip), vehicle: Klucel (hydroxypropylcellulose) (HPC).
Setting [4] is: dose: 400.0 mg/kg/injection, schedule: Q01DX001 (ip), vehicle: Klucel (hydroxypropylcellulose) (HPC).
[5] abbreviates: dose: 100.0 mg/kg/injection, schedule: Q01DX001 (ip), vehicle: Klucel (hydroxypropylcellulose) (HPC).

For the molecule `OCC1OC(n2cnc3c(Cl)ncnc32)C(O)C1O` (configuration not stated), the T/C is, setting by setting: (dose: 25.0 mg/kg/injection, schedule: Q01DX009 (ip), vehicle: saline, evaluated on day 45) 97 % of control; (dose: 25.0 mg/kg/injection, schedule: Q01DX009 (ip), vehicle: saline, evaluated on day 60) 93, 111, 115, 119, 130 % of control; (dose: 50.0 mg/kg/injection, schedule: Q01DX009 (ip), vehicle: saline, evaluated on day 45) 96 % of control; (dose: 50.0 mg/kg/injection, schedule: Q01DX009 (ip), vehicle: saline, evaluated on day 60) 102, 102 [9 of 10 alive], 105, 105 [11 of 12 alive], 119 % of control; (dose: 100.0 mg/kg/injection, schedule: Q01DX009 (ip), vehicle: saline, evaluated on day 45) 102 % of control; (dose: 100.0 mg/kg/injection, schedule: Q01DX009 (ip), vehicle: saline, evaluated on day 60) 88 [8 of 10 alive], 101, 105, 107 [7 of 10 alive], 110 % of control. Moreover, the T/C is 134 % of control under setting [1]; 118 % of control (dose: 100.0 mg/kg/injection, schedule: Q04DX003 (ip), vehicle: saline, evaluated on day 45); 100 and 104 % of control (dose: 100.0 mg/kg/injection, schedule: Q04DX003 (ip), vehicle: saline, evaluated on day 60); 102 % of control (dose: 200.0 mg/kg/injection, schedule: Q01DX001 (ip), vehicle: saline, evaluated on day 45); 90, 95, 97, 110 % of control (dose: 200.0 mg/kg/injection, schedule: Q01DX001 (ip), vehicle: saline, evaluated on day 60); 132 % of control under setting [2]. For the same molecule, the T/C runs as follows: (dose: 200.0 mg/kg/injection, schedule: Q04DX003 (ip), vehicle: saline, evaluated on day 30) 102 % of control; (dose: 200.0 mg/kg/injection, schedule: Q04DX003 (ip), vehicle: saline, evaluated on day 45) 110 % of control; (dose: 200.0 mg/kg/injection, schedule: Q04DX003 (ip), vehicle: saline, evaluated on day 60) 100 and 102 % of control; (dose: 400.0 mg/kg/injection, schedule: Q01DX001 (ip), vehicle: saline, evaluated on day 45) 94 % of control; (dose: 400.0 mg/kg/injection, schedule: Q01DX001 (ip), vehicle: saline, evaluated on day 60) 90, 90 [9 of 10 alive], 115 % of control; (dose: 400.0 mg/kg/injection, schedule: Q04DX003 (ip), vehicle: saline, evaluated on day 45) 104 % of control. Moreover, the T/C (dose: 400.0 mg/kg/injection, schedule: Q04DX003 (ip), vehicle: saline, evaluated on day 60) was 100, 109, 111 % of control. For the same molecule, the survivor count is, setting by setting: (dose: 25.0 mg/kg/injection, schedule: Q04DX003 (ip), vehicle: saline) 10 of 10; (dose: 100.0 mg/kg/injection, schedule: Q04DX003 (ip), vehicle: saline) 6 of 10 and 7 of 10; (dose: 300.0 mg/kg/injection, schedule: Q01DX005 (ip), vehicle: saline) 5 of 10; (dose: 300.0 mg/kg/injection, schedule: Q04DX003 (ip), vehicle: saline) 7 of 10; (dose: 400.0 mg/kg/injection, schedule: Q01DX001 (ip), vehicle: saline) 10 of 10; (dose: 400.0 mg/kg/injection, schedule: Q01DX005 (ip), vehicle: saline) 5 of 10. Further, the survivor count is 10 of 10 (dose: 500.0 mg/kg/injection, schedule: Q01DX001 (ip), vehicle: saline); 2 of 10 (dose: 500.0 mg/kg/injection, schedule: Q01DX005 (ip), vehicle: saline); 10 of 10 (dose: 600.0 mg/kg/injection, schedule: Q01DX001 (ip), vehicle: saline).

Regarding `ClC1=C(Cl)C2(Cl)C(COc3ccc(Cl)cc3)CC1(Cl)C2(Cl)Cl` (configuration not stated), the survivor count was 10 of 10 under setting [1]; 10 of 10 under setting [2]; 10 of 10 (dose: 400.0 mg/kg/injection, schedule: Q04DX003 (ip), vehicle: other).

For the molecule `COc1ccc(NC(=S)Nc2ccccn2)cc1`, the survivor count is recorded as 5 of 10 under setting [3] and 10 of 10 under setting [4].

As for `CC(=O)c1cccc(N)c1`, under setting [3], the T/C was 127 % of control.

Turning to `Cc1ccc(N2C(=O)CC(Sc3ccccc3N)C2=O)cc1` (configuration not stated), the survivor count is, setting by setting: under setting [3], 10 of 10; under setting [4], 10 of 10.

Regarding `S=c1[nH]nc(NC2CCCCC2)s1`, the survivor count (dose: 400.0 mg/kg/injection, schedule: Q04DX003 (ip), vehicle: Klucel (hydroxypropylcellulose) (HPC)) is given as 9 of 10.

As for `COc1ccc(N2C(=O)CC(Sc3ccccc3N)C2=O)cc1` (configuration not stated), the survivor count reads like this: under setting [5], 10 of 10; under setting [3], 10 of 10.

For `CCOc1ccc(Br)cc1/C=N\N=C\c1cc(Br)ccc1OCC`, the survivor count is on record as 10 of 10 under setting [5], 10 of 10 under setting [3] and 10 of 10 under setting [4].
